Experimental findings from the supplement of paper PMC12819154, “High-throughput peptide-centric local stability assay extends protein–ligand identification to membrane proteins, tissues and bacteria” (Nature Structural & Molecular Biology, 2025) are described below.

Chains of the proteins cited; added tags and fusions are not shown. Lines headed by an entry give the natural chain unless they say otherwise; changes in a name come on top.
UniProt Q9UEG4: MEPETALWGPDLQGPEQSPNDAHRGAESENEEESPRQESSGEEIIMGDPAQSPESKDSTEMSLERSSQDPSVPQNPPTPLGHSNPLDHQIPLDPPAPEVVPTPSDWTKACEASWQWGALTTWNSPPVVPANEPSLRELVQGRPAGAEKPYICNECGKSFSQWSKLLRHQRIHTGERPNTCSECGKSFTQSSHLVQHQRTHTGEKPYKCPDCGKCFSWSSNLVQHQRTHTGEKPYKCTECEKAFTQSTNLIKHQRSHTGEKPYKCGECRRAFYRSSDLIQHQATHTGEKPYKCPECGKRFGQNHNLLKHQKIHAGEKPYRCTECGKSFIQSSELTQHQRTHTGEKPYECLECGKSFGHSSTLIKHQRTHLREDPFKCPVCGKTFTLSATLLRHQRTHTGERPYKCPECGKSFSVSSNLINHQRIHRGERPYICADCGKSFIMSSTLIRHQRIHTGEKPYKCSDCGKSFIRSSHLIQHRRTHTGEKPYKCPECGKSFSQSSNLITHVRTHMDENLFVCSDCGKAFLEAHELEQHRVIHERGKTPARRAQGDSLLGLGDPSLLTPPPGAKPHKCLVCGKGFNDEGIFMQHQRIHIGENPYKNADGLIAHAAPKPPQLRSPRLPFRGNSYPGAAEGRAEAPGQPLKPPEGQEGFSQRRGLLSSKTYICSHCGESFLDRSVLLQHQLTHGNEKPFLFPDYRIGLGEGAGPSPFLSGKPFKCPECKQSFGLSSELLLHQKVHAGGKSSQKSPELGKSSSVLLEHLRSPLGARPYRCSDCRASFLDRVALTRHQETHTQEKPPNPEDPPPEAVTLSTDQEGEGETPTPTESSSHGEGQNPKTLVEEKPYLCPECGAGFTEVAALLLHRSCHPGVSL
UniProt Q9P1U0, whole entry: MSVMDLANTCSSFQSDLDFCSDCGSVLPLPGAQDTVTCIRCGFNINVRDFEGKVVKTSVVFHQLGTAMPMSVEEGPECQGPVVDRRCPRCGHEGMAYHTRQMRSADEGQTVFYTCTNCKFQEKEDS
UniProt Q9P2Y5: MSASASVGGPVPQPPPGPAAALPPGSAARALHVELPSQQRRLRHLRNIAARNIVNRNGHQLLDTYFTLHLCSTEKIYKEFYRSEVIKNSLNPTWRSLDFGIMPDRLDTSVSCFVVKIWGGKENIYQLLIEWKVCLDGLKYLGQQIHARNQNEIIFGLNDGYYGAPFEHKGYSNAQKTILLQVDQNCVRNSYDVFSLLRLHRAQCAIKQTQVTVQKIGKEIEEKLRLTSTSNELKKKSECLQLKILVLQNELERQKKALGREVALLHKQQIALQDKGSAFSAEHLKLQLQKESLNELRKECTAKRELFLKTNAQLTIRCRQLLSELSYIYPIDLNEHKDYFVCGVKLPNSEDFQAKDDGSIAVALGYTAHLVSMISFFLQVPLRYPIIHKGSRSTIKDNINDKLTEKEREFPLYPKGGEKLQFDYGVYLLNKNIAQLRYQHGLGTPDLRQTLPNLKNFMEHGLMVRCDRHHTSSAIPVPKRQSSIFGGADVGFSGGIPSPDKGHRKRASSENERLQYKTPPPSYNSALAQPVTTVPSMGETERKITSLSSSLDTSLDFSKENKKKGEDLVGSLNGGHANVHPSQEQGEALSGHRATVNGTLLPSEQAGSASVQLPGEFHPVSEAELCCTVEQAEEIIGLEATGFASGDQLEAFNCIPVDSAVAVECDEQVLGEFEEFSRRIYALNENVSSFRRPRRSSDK
UniProt Q9UH65: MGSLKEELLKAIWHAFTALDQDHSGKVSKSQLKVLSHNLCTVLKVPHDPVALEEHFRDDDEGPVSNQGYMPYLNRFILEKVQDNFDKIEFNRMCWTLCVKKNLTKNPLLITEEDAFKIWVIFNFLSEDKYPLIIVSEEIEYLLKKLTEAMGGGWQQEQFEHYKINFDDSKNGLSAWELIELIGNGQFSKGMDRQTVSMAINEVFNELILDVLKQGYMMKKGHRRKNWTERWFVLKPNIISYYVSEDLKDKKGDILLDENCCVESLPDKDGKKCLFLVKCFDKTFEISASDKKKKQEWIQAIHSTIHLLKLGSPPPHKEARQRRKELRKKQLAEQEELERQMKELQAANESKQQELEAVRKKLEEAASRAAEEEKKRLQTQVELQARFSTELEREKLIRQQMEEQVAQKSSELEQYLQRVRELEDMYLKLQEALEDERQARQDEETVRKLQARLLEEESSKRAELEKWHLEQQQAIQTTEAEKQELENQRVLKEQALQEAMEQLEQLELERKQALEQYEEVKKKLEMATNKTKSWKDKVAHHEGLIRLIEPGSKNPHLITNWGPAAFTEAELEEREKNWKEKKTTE
UniProt Q9P260: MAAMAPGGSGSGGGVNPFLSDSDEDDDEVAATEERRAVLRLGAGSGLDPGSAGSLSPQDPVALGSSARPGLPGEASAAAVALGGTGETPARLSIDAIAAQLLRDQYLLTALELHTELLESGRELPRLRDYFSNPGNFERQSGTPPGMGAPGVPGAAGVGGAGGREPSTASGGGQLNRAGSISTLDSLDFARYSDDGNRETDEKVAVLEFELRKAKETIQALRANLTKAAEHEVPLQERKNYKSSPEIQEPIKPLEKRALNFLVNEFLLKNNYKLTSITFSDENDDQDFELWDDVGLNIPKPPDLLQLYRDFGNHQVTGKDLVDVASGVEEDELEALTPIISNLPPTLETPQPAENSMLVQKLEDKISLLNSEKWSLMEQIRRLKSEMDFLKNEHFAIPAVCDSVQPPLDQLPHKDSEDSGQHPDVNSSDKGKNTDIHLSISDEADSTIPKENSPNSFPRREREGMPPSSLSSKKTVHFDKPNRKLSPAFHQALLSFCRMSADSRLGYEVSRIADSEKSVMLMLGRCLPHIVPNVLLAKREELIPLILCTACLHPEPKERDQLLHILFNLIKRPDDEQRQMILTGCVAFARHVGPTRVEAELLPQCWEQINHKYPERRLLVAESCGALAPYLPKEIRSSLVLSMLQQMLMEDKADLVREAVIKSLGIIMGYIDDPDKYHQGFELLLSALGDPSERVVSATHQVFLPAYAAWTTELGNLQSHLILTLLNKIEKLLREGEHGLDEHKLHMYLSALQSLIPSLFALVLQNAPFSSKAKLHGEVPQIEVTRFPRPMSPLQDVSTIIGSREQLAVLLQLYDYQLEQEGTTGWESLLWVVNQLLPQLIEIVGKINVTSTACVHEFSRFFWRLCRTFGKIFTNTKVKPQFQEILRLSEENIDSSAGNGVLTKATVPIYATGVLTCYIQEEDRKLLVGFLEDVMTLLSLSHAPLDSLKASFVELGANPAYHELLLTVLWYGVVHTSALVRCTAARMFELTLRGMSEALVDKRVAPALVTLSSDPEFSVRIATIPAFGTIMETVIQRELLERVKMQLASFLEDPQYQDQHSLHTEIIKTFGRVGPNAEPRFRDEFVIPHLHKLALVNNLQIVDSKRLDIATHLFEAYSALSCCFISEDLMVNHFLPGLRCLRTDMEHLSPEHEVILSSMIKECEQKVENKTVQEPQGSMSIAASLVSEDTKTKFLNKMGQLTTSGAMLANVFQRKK
UniProt Q9UFW8: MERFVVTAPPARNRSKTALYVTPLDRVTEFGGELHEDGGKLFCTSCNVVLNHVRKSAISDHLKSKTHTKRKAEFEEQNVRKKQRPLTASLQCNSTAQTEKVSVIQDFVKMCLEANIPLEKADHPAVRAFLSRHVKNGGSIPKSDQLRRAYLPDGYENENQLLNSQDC
UniProt Q9UDV7: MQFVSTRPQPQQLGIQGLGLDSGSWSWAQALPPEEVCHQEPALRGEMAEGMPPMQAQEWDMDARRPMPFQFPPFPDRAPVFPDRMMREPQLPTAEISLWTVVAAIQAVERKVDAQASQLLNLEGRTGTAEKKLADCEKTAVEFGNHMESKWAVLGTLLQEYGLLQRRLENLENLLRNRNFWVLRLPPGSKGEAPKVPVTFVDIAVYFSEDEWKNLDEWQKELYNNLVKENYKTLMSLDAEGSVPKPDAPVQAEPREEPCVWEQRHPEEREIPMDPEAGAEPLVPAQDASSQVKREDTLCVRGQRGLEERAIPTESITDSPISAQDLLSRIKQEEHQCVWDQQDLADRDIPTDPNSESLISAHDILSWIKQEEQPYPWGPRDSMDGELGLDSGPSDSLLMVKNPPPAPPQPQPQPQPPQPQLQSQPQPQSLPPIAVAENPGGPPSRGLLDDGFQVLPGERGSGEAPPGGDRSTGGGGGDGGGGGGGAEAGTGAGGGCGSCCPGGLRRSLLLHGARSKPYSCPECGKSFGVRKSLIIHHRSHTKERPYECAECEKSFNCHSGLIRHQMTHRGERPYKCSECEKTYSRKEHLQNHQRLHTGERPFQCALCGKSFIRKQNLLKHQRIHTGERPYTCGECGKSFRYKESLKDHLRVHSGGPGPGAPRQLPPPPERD
UniProt Q9UK45: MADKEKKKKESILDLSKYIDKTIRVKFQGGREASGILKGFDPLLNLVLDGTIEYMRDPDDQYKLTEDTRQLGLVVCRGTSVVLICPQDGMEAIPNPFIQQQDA
UniProt Q9UBU8, whole entry: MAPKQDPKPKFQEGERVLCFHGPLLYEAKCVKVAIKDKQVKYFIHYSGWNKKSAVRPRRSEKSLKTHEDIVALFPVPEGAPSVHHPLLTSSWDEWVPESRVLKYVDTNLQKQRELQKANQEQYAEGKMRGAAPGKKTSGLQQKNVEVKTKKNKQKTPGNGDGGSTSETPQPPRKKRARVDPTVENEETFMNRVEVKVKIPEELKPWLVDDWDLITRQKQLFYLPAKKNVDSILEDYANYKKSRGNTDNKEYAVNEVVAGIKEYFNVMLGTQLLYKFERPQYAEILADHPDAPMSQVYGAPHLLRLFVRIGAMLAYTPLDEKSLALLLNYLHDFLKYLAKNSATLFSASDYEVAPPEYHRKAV
UniProt Q9UBV8: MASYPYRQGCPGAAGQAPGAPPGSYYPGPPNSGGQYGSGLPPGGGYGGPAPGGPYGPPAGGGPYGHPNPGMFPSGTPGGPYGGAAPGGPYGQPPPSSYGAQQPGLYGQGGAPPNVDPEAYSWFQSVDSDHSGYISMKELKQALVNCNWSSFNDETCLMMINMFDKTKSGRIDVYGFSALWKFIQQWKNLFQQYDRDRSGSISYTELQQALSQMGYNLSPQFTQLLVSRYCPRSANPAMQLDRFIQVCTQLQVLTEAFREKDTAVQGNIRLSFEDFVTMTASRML
UniProt Q9P2H5: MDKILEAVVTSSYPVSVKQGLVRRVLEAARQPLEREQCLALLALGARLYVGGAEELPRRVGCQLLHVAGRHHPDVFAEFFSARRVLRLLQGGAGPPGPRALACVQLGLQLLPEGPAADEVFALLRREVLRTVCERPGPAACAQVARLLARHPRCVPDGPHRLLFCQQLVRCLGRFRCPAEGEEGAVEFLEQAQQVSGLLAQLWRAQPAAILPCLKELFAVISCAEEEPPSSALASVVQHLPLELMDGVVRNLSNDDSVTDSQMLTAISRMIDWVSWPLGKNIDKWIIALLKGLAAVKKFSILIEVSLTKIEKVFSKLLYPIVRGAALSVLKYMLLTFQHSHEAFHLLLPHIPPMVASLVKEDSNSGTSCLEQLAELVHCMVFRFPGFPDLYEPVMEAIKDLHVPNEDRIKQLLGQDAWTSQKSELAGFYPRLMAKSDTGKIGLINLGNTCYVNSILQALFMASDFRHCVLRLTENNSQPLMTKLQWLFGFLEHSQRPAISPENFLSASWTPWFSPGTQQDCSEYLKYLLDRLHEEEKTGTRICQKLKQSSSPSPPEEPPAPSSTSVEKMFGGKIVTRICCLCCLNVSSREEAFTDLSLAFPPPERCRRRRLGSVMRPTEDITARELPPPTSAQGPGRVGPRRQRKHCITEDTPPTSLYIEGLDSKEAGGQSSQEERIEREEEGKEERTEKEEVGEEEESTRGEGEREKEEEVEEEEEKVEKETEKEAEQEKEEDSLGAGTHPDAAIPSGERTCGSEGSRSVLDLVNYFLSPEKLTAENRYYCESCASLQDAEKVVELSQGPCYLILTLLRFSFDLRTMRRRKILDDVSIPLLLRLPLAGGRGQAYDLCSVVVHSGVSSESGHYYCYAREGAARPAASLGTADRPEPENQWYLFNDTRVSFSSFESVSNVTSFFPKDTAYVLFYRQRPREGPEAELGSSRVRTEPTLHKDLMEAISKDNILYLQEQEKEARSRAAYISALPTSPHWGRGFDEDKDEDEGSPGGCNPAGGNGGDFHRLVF
UniProt Q9UDW3: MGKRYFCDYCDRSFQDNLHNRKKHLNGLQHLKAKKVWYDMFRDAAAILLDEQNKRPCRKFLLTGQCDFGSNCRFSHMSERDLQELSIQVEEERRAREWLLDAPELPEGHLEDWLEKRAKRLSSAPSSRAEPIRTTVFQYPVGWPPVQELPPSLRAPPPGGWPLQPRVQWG
UniProt Q9UBW8: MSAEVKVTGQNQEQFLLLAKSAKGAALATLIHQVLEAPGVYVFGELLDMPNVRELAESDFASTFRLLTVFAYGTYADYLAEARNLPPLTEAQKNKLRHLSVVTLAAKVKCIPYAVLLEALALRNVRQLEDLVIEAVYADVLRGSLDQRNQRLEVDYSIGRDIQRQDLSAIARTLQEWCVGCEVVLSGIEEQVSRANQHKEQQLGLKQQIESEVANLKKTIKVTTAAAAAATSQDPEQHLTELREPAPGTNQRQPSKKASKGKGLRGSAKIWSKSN

The list shows a part of the results. Most values lie at the level of the controls, where differences are scatter.

Compound in this assay: CN[C@@H]1C[C@H]2O[C@@](C)([C@@H]1OC)n1c3ccccc3c3c4c(c5c6ccccc6n2c5c31)C(=O)NC4 [staurosporine]
Description: log2 fold change of tryptic peptide abundance, ligand vs vehicle (limited proteolysis) (log2 ratio); higher = more trypsin-susceptible (destabilized). Conditions: ligand concentration: 20 uM; sample: K562 cleared lysate; digestion: 4 min, 22 C (HT-PELSA RT4min, Orbitrap Astral).
On to “RABL2A (peptide sequence: NLSTWYTELR, peptide start residue: 111) (UniProt Q9UBK7)”, for which the log2 fold change came out at 0.4.

Regarding “ZNF629 (peptide sequence: SFTQSSHLVQHQR, peptide start residue: 186) (UniProt Q9UEG4)”, the log2 fold change was 0.21.

For “ZNRD1 (peptide sequence: CGHEGMAYHTR, peptide start residue: 90) (UniProt Q9P1U0)”, the log2 fold change came to 0.132.

Take “CLIP2 (peptide sequence: QSSGPSSSPAAAAAPEKPGPK, peptide start residue: 47) (UniProt Q9UDT6)”: the log2 fold change is -0.482.

As for “UVRAG (peptide sequence: HHTSSAIPVPK, peptide start residue: 469) (UniProt Q9P2Y5)”, the log2 fold change was determined as 0.343.

Consider “SWAP70 (peptide sequence: VAHHEGLIR, peptide start residue: 538) (UniProt Q9UH65)”, for which the log2 fold change is 0.358.

In the case of “XPO7 (peptide sequence: VLQLMNLTDSR, peptide start residue: 527) (UniProt Q9UIA9)”, the log2 fold change came to 0.31.

Regarding “MRM2 (peptide sequence: ILEVLPGR, peptide start residue: 139) (UniProt Q9UI43)”, the log2 fold change was -0.121.

Regarding “UniProt Q9P260 (peptide sequence: ERDQLLHILFNLIK, peptide start residue: 558)”, the log2 fold change is 0.772.

On to “SLAIN2 (peptide sequence: LSLQGHPTDLQTSNVK, peptide start residue: 390) (UniProt Q9P270)”, for which the log2 fold change was -0.178.

In the case of “TUBD1 (peptide sequence: QGSGNNWAYGYSVHGPR, peptide start residue: 98) (UniProt Q9UJT1)”, the log2 fold change was found to be 0.409.

Take “CGGBP1 (peptide sequence: LFCTSCNVVLNHVRK, peptide start residue: 41) (UniProt Q9UFW8)”: the log2 fold change was -0.22.

For the target “UniProt Q9UDV7 (peptide sequence: SKPYSCPECGK, peptide start residue: 515)”, the log2 fold change stood at 0.686.

On to “LSM7 (peptide sequence: KKESILDLSK, peptide start residue: 8) (UniProt Q9UK45)”, for which the log2 fold change worked out at 0.293.

For “ACTR3B (peptide sequence: HGIIEDWDLMER, peptide start residue: 80) (UniProt Q9P1U1)”, the log2 fold change worked out at 0.438.

For the target “UniProt Q9UJW7 (peptide sequence: GFRYGSGLLSHK, peptide start residue: 720)”, the log2 fold change turned out to be 0.0514.

On to “DNMT3B (peptide sequence: IFGFPVHYTDVSNMGR, peptide start residue: 808) (UniProt Q9UBC3)”, for which the log2 fold change came out at 0.238.

Consider “MORF4L1 (peptide sequence: QKTPGNGDGGSTSETPQPPRK, peptide start residue: 154) (UniProt Q9UBU8)”, for which the log2 fold change is -0.459.

Regarding “PEF1 (peptide sequence: LSFEDFVTMTASR, peptide start residue: 270) (UniProt Q9UBV8)”, the log2 fold change was -0.308.

Consider “SERGEF (peptide sequence: VTYLSPDAIEDTESQK, peptide start residue: 414) (UniProt Q9UGK8)”, for which the log2 fold change is -0.0742.

As for “UniProt Q9P2H5 (peptide sequence: SELAGFYPR, peptide start residue: 423)”, the log2 fold change is -0.395.

Consider “CALCOCO1 (peptide sequence: QQGDHVAR, peptide start residue: 222) (UniProt Q9P1Z2)”, for which the log2 fold change was determined as 1.03.

With “DDX25 (peptide sequence: TAAFVLAMLSR, peptide start residue: 144) (UniProt Q9UHL0)”, the log2 fold change was 0.153.

Take “ZMAT5 (peptide sequence: KVWYDMFR, peptide start residue: 35) (UniProt Q9UDW3)”: the log2 fold change is 0.186.

“COPS7A (peptide sequence: QQIESEVANLKK, peptide start residue: 207) (UniProt Q9UBW8)”: the log2 fold change is -0.0402.
